{"source": "PubChem BioAssay AID1259308 (NCATS, 2017)", "screen": "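Knock-downs that increase output of a recombinant reporter protein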 (primary screen)", "cells": "human HEK293 embryonic kidney cells stably expressing firefly luciferase (HEK-CMV-Luc2-Hygro)", "reagents": "single siRNA against human genes, 0.8 pmol siRNA per well", "duration": "72 h", "measured": "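Reporter luminescence and viable-cell signal on separate replicate plates, given as percent of non-targeting control and median/MAD z-scores, plus per-cell luciferase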", "reading the numbers": "total luciferase, z-score: higher = more reporter protein produced", "hit rule": "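An siRNA counts as active if its total luciferase robust z-score exceeds 3; genes with two or more such siRNAs out of three were retested with fresh siRNAs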", "calls": "active = raised luciferase; inactive = no rise", "note": "Here is an unselected part of about 59,000 deposited reagents. About 1,510 of them (2.6%) count as active. 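Calls use total luciferase alone and ignore viability, so some active siRNAs may act by altering cell number.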 A number with no mark means an inactive call. Reagents against one gene are numbered here. Not all columns of the deposit are shown. No sequences are given here."}
{"gene": "ATP6V0E2 (ATPase H+ transporting V0 subunit e2)", "reagent no.": 1, "total luciferase, z-score": "4.47 (active)"}
{"gene": "ATP6V0E2 (ATPase H+ transporting V0 subunit e2)", "reagent no.": 2, "total luciferase, z-score": -0.822}
{"gene": "ATP6V0E2 (ATPase H+ transporting V0 subunit e2)", "reagent no.": 3, "total luciferase, z-score": -2.44}
{"gene": "PFDN4 (prefoldin subunit 4)", "reagent no.": 1, "total luciferase, z-score": 0.703}
{"gene": "PFDN4 (prefoldin subunit 4)", "reagent no.": 2, "total luciferase, z-score": 0.546}
{"gene": "PFDN4 (prefoldin subunit 4)", "reagent no.": 3, "total luciferase, z-score": 1.27}
{"gene": "SEMA4F (ssemaphorin 4F)", "reagent no.": 1, "total luciferase, z-score": -0.505}
{"gene": "SEMA4F (ssemaphorin 4F)", "reagent no.": 2, "total luciferase, z-score": -0.254}
{"gene": "SEMA4F (ssemaphorin 4F)", "reagent no.": 3, "total luciferase, z-score": 0.253}
{"gene": "CCDC33 (coiled-coil domain containing 33)", "reagent no.": 1, "total luciferase, z-score": -1.36}
{"gene": "CCDC33 (coiled-coil domain containing 33)", "reagent no.": 2, "total luciferase, z-score": -1.89}
{"gene": "CCDC33 (coiled-coil domain containing 33)", "reagent no.": 3, "total luciferase, z-score": -1.9}
{"gene": "LARP4B (La ribonucleoprotein 4B)", "reagent no.": 1, "total luciferase, z-score": -2.27}
{"gene": "LARP4B (La ribonucleoprotein 4B)", "reagent no.": 2, "total luciferase, z-score": -0.766}
{"gene": "LARP4B (La ribonucleoprotein 4B)", "reagent no.": 3, "total luciferase, z-score": 0.394}
{"gene": "PIGA (phosphatidylinositol glycan anchor biosynthesis class A)", "reagent no.": 1, "total luciferase, z-score": 1}
{"gene": "PIGA (phosphatidylinositol glycan anchor biosynthesis class A)", "reagent no.": 2, "total luciferase, z-score": -1.19}
{"gene": "PIGA (phosphatidylinositol glycan anchor biosynthesis class A)", "reagent no.": 3, "total luciferase, z-score": 0.436}
{"gene": "ANK3 (ankyrin 3)", "reagent no.": 1, "total luciferase, z-score": 1.38}
{"gene": "ANK3 (ankyrin 3)", "reagent no.": 2, "total luciferase, z-score": 0.522}
{"gene": "ANK3 (ankyrin 3)", "reagent no.": 3, "total luciferase, z-score": -0.282}
{"gene": "SLC35B2", "reagent no.": 1, "total luciferase, z-score": -0.589}
{"gene": "SLC35B2", "reagent no.": 2, "total luciferase, z-score": -0.07}
{"gene": "SLC35B2", "reagent no.": 3, "total luciferase, z-score": -1.65}
{"gene": "HINFP (histone H4 transcription factor)", "reagent no.": 1, "total luciferase, z-score": "6.59 (active)"}
{"gene": "HINFP (histone H4 transcription factor)", "reagent no.": 2, "total luciferase, z-score": -1.78}
{"gene": "HINFP (histone H4 transcription factor)", "reagent no.": 3, "total luciferase, z-score": 0.0383}
{"gene": "JRK (Jrk helix-turn-helix protein)", "reagent no.": 1, "total luciferase, z-score": -0.14}
{"gene": "JRK (Jrk helix-turn-helix protein)", "reagent no.": 2, "total luciferase, z-score": 0.284}
{"gene": "JRK (Jrk helix-turn-helix protein)", "reagent no.": 3, "total luciferase, z-score": 0.383}
{"gene": "PRKAA1 (protein kinase AMP-activated catalytic subunit alpha 1)", "reagent no.": 1, "total luciferase, z-score": -0.0012}
{"gene": "PRKAA1 (protein kinase AMP-activated catalytic subunit alpha 1)", "reagent no.": 2, "total luciferase, z-score": -1.32}
{"gene": "PRKAA1 (protein kinase AMP-activated catalytic subunit alpha 1)", "reagent no.": 3, "total luciferase, z-score": -2.2}

Looked up above:
Result for ATP6V0E2 (ATPase H+ transporting V0 subunit e2) #1 in “total luciferase, z-score”: 4.47 (active)
Value of PIGA (phosphatidylinositol glycan anchor biosynthesis class A) #3 in “total luciferase, z-score”: 0.436
SEMA4F (ssemaphorin 4F) #2, total luciferase, z-score → -0.254
